From patent US10543155B2, “Compositions containing zinc salts and isothiocyanates for reduction of oral volatile sulfur compounds (VSCs)” (priority 2011, dated 2020)
Some results were stated once for a whole list of compounds, not compound by compound.

experiment: in vitro headspace GC-SCD test of zinc salts against H2S; settings: 5 ml PBS containing 1 mg H2S, 37° C. 5 min
Protocol: In another experiment, 5 ml of PBS solution containing 1 mg of H2S was prepared via a serial dilution in a 22 ml headspace vial for FIG. 2 below. Different amounts of zinc salts were added and mixed at 37° C. for 5 min. The headspace concentration of H2S was analyzed by GC-SCD.

Substance	amount of zinc salt above which H2S is reduced
zinc ascorbate	greater than 0.5 mg
zinc gluconate	greater than 0.5 mg
zinc hydrogen aspartate	greater than 0.5 mg
